According to article PMC4748814:
No constants are given. Whether binding was seen depends on the method and setting. In cells and extracts the contact can be indirect. Some binding calls cover weakened binding; strength is not graded here. Sequences can lack the tags named with a protein.

Sequences of proteins named here, by UniProt entry; tags and fusion partners are left off.
UniProt P0A6X3: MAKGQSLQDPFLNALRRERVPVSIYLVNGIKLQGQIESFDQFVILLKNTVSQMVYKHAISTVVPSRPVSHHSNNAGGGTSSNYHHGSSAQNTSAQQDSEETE

Biological target: T1, PNPase-FLAG (polynucleotide phosphorylase with a C-terminal 3xFLAG tag, expressed from the chromosomal pnp locus) (E. coli) (UniProt P05055)
T1 sequence: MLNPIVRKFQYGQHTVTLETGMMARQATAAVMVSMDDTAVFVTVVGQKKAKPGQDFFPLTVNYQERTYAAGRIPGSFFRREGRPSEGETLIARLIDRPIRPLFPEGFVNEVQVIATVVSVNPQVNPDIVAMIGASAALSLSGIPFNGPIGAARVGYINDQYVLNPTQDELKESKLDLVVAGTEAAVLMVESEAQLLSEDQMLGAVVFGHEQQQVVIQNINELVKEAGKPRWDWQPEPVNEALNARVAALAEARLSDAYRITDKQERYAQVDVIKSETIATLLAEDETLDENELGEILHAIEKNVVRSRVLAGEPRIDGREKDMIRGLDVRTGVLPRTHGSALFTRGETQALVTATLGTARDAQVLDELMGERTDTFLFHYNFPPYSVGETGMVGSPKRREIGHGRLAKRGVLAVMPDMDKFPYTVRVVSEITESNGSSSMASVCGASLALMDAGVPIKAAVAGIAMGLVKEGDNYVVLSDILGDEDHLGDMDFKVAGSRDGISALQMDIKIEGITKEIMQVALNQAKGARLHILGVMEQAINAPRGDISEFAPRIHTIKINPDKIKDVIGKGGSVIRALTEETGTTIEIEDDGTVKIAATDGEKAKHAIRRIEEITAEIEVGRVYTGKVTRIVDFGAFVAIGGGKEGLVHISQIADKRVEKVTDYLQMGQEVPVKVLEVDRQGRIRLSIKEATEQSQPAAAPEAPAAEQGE
Experiment: co-IP; PNPase-FLAG immunoprecipitated with anti-FLAG M2 agarose from lysates of late exponential phase E. coli cultures (OD600 1.0), TBS pH 7.4, 4 °C; in vivo formaldehyde crosslinking before purification, crosslinks reversed afterwards; elution with 3xFLAG peptide; Western blot with anti-Hfq

- binding: binds
Substance: Hfq (endogenous) (from UniProt P0A6X3 1-102)
